{"source": "PubChem BioAssay AID1159578 | Peter MacCallum Cancer Centre | 2015", "test": "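siRNA pools altering how lymphatic endothelial cells close a scratch wound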 (primary screen)", "cell system": "human lymphatic endothelial cells", "knock-down reagent": "siRNA pool against human genes, 40 nM", "time to read-out": "48 h after transfection", "measurement": "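Cells stained with dye and imaged after a scratch; covered wound area and nuclei counted, duplicates averaged, migration set against mock wells and turned into a robust z-score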", "reading the numbers": "migration robust z-score: higher = faster migration into the scratch; nuclei per well: higher = more cells in the well", "hit rule": "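Pools averaging fewer than 3300 nuclei are never called; remaining pools count as changed when migration robust z lies outside -2 to 2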", "calls": "active = migration changed; inactive = no migration change, or too few cells", "note": "In all, the deposit lists about 18,000 reagents; this is a random part of them. About 1,030 of them (5.7%) count as active. 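Inactive calls also include pools with fewer than 3300 nuclei, whose migration was not assessed.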 Raw values are not corrected between plates. Further read-outs or replicates are left out here."}
The first 2 records, to show the layout:
{"gene symbol":"CMTM5","migration robust z-score":-1.25,"migration class with cell-count check":"migration z between -2 and 2; enough cells","nuclei per well, duplicate mean":5455,"Call":"inactive"}
{"gene symbol":"MGME1","migration robust z-score":-0.78,"migration class with cell-count check":"migration z between -2 and 2; enough cells","nuclei per well, duplicate mean":4904,"Call":"inactive"}

Main list, from the start:
{"gene symbol":"CMTM5","migration robust z-score":-1.25,"migration class with cell-count check":"migration z between -2 and 2; enough cells","nuclei per well, duplicate mean":5455,"Call":"inactive"}
{"gene symbol":"MGME1","migration robust z-score":-0.78,"migration class with cell-count check":"migration z between -2 and 2; enough cells","nuclei per well, duplicate mean":4904,"Call":"inactive"}
{"gene symbol":"STRC","migration robust z-score":-2.38,"migration class with cell-count check":"migration z below -2; enough cells","nuclei per well, duplicate mean":5663,"Call":"active"}
{"gene symbol":"NCKAP1","migration robust z-score":0.22,"migration class with cell-count check":"migration z between -2 and 2; enough cells","nuclei per well, duplicate mean":5688,"Call":"inactive"}
{"gene symbol":"TMEM200C","migration robust z-score":0.02,"migration class with cell-count check":"migration z between -2 and 2; enough cells","nuclei per well, duplicate mean":5657,"Call":"inactive"}
{"gene symbol":"JOSD1","migration robust z-score":-0.52,"migration class with cell-count check":"migration z between -2 and 2; enough cells","nuclei per well, duplicate mean":5944,"Call":"inactive"}
{"gene symbol":"QKI","migration robust z-score":-1.5,"migration class with cell-count check":"migration z between -2 and 2; enough cells","nuclei per well, duplicate mean":4852,"Call":"inactive"}
{"gene symbol":"BNIP5","migration robust z-score":-0.56,"migration class with cell-count check":"migration z between -2 and 2; enough cells","nuclei per well, duplicate mean":6412,"Call":"inactive"}
{"gene symbol":"MTNR1A","migration robust z-score":0.6,"migration class with cell-count check":"migration z between -2 and 2; enough cells","nuclei per well, duplicate mean":6241,"Call":"inactive"}
{"gene symbol":"TAAR2","migration robust z-score":-0.75,"migration class with cell-count check":"migration z between -2 and 2; enough cells","nuclei per well, duplicate mean":6014,"Call":"inactive"}
{"gene symbol":"BPNT1","migration robust z-score":1.17,"migration class with cell-count check":"migration z between -2 and 2; enough cells","nuclei per well, duplicate mean":5262,"Call":"inactive"}
{"gene symbol":"MAP3K19","migration robust z-score":-0.76,"migration class with cell-count check":"migration z between -2 and 2; enough cells","nuclei per well, duplicate mean":6298,"Call":"inactive"}
{"gene symbol":"ACSM2B","migration robust z-score":-0.52,"migration class with cell-count check":"migration z between -2 and 2; enough cells","nuclei per well, duplicate mean":6536,"Call":"inactive"}
{"gene symbol":"SNX33","migration robust z-score":-0.43,"migration class with cell-count check":"migration z between -2 and 2; enough cells","nuclei per well, duplicate mean":5518,"Call":"inactive"}
{"gene symbol":"VSTM2L","migration robust z-score":1.54,"migration class with cell-count check":"migration z between -2 and 2; enough cells","nuclei per well, duplicate mean":6299,"Call":"inactive"}
{"gene symbol":"PLBD2","migration robust z-score":-0.4,"migration class with cell-count check":"migration z between -2 and 2; enough cells","nuclei per well, duplicate mean":5172,"Call":"inactive"}
{"gene symbol":"CXXC4","migration robust z-score":-0.8,"migration class with cell-count check":"migration z between -2 and 2; enough cells","nuclei per well, duplicate mean":5239,"Call":"inactive"}
{"gene symbol":"SLC36A1","migration robust z-score":-2.18,"migration class with cell-count check":"migration z below -2; enough cells","nuclei per well, duplicate mean":3930,"Call":"active"}
{"gene symbol":"GLUL","migration robust z-score":-0.08,"migration class with cell-count check":"migration z between -2 and 2; enough cells","nuclei per well, duplicate mean":5409,"Call":"inactive"}
{"gene symbol":"TIGD2","migration robust z-score":0.12,"migration class with cell-count check":"migration z between -2 and 2; enough cells","nuclei per well, duplicate mean":6734,"Call":"inactive"}
{"gene symbol":"VWA5A","migration robust z-score":0.08,"migration class with cell-count check":"migration z between -2 and 2; enough cells","nuclei per well, duplicate mean":4867,"Call":"inactive"}
